According to patent publication US9833486B2, “Compositions comprising selenium and use of same for the treatment and prevention of disease or conditions associated with mitochondrial dysfunction” (ALLTECH, INC., priority 2013, dated 2017):
At least one compound was matched to its structure with a doubt left.

Assays:
C57BL/6J mice = assay: Gene expression in skeletal muscle (gastrocnemius) of normal mice, microarray; type: in vivo, mouse
mice = assay: Expression of oxidative phosphorylation (OXPHOS) molecules in liver; type: in vivo, mouse
Procedure: Utilizing the animal model described in Example 2, experiments were conducted to analyze the expression of molecules that regulate oxidative phosphorylation (OXPHOS) in the liver of subjects administered a composition comprising selenium.

O=[Se](O)O [sodium selenite]
Des expression (C57BL/6J mice; three months, vs controls): significantly upregulated
Myf6 expression (C57BL/6J mice; three months, vs controls): significantly upregulated
MAP2K2 expression (in words) (C57BL/6J mice; vs control): reduced expression
expression of ATPase inhibitory factor 1 (mice): significantly reduced
expression of ATPase, H+ transporting lysosomal, V1 subunit H (mice): significantly reduced
expression of ATPase, H+ transporting, V1 subunit A (mice): significant increase
expression of ATPase, H+ transporting, V1 subunit D (mice): significant increase
expression of NADH dehydrogenase (ubiquinone) 1 alpha subcomplex 1 (mice): significant increase
expression of NADH dehydrogenase (ubiquinone) 1 alpha subcomplex 4 (mice): significantly reduced
expression of NADH dehydrogenase (ubiquinone) 1 alpha subcomplex 10 (mice): significant increase
expression of NADH dehydrogenase (ubiquinone) 1 beta subcomplex 10 (mice): significant increase
expression of cytochrome c oxidase, subunit Va (mice): significant increase
expression of succinate dehydrogenase complex, subunit C (mice): significant increase
regulation of liver specific mitochondrial activity, compared with selenium enriched yeast (mice): significantly less effective
